# According to article PMC5522442 (Scientific Reports, 2017):
# Experiment: peptide made by a vendor
substance,measurement,setting,value
"PEPTIDE1{Y.E.T.G.C.K.R.C.C.Y.L.D.E.Y.G.C.I.R.C.C}$PEPTIDE1,PEPTIDE1,5:R3-16:R3|PEPTIDE1,PEPTIDE1,8:R3-20:R3|PEPTIDE1,PEPTIDE1,9:R3-19:R3$$$V2.0",oxidative folding yield,"oxidative folding step, HPLC peak area before vs after folding",76.7%
same,final purity (method not given),whole synthesis,85%

# Some peptides are written in HELM: one residue between dots, names in brackets for other building blocks, links after the first $.
